Residue numbers refer to the chain shown, from its start. Results are given in words; binding and its absence hold for the method and conditions named. Some results given as binding are weak or reduced against the parent protein; the word gives no strength. For some of these results: Where a sequence is shown, tags or fusion partners need not be part of it.

Protein sequences, listed by entry. Tags and fused reporters are not part of them. Lines headed by an entry give the natural chain unless they say otherwise; changes in a name come on top. Chains listed by the source or under a name are the forms on record and can include a tag or linker. Residues count along the entry.
Cynomolgus monkey IL-13 (Q0PW92, form named): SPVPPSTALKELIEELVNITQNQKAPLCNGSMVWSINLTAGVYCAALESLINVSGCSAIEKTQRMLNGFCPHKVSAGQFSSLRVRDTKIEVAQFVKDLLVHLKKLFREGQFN
UniProt Q864V6, residues 19-132: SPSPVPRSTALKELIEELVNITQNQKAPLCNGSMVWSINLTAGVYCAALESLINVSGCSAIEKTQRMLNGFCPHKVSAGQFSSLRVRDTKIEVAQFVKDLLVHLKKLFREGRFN

The results in this text go back to patent publication US20110236380A1 (published 2011).

For test [1], the target named is T1, Cynomolgus monkey IL-13 (cynomolgus monkey, UniProt Q0PW92 21-132). Description: Biacore screen of supernatants, 200Ru cyno IL-13 streptavidin chip. (In general: In SPR one partner is held on a chip, and binding of the other changes the refractive index at the surface.)
Test [2] deals with T1, Cynomolgus monkey IL-13. Description: summary of Biacore, ELISA and HEK STAT data.
The target in test [3] is T1, Cynomolgus monkey IL-13. Description: Biacore SPR.
The target of the next test is rhesus IL-13 (rhesus, UniProt Q864V6 19-132, limits assumed). Description: description's summary of the examples; rhesus IL-13 was tested only in the HEK STAT assay.

B1: DOM10-53-567 (c-myc tagged, pDOM5 supernatant) (protein, not shown: small tags and cut ends)
VH: GVQLLESGGGLVQPGGSLRLSCAASGFVFAWYDMGWVRQAPGKGLEWVSSIDWHGEVTYYADSVKGRFTISRDNSKNTLYLQMNSLRAEDTAVYYCATAEDEPGYDYWGQGTLVTVSS
Take B1: the binding result with Cynomolgus monkey IL-13 [1] was “binds”.

B2: DOM10-53-616 (other)
VH: B1 VH with A30P, E56K, V57I
For B2, the binding result with Cynomolgus monkey IL-13 [2], with Cynomolgus monkey IL-13 [3] and with rhesus IL-13 was “binds” in each case.

B3: DOM10-53-567 (other)
VH: B1 VH
Take B3: the binding result in the test with Cynomolgus monkey IL-13 [2], in the test with Cynomolgus monkey IL-13 [3] and with rhesus IL-13 was “binds” in each case.

B4: DOM10-53-568 (other)
VH: B1 VH with E56K, V57I
Regarding B4, the binding entry with Cynomolgus monkey IL-13 [2], with Cynomolgus monkey IL-13 [3] and with rhesus IL-13 was “binds” throughout.

B5: DOM10-53-546 (other)
VH: B1 VH with A30P, H54K, E56G, V57K
With B5, the binding entry with Cynomolgus monkey IL-13 [2], with Cynomolgus monkey IL-13 [3] and with rhesus IL-13 was “binds” throughout.
